Measurements reported in PubChem BioAssay AID504764 (Drosophila RNAi Screening Center, 2011)
Screen: 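Genome-wide screen for regulators of Notch-driven gene expression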 (primary screen). System: Drosophila Kc167 cells. Reagents: long dsRNA against Drosophila genes. Timing: about 5 days (4 days dsRNA, then 24 h after transfection). Conditions: transfection of constitutively active membrane-tethered Notch lacking the extracellular domain, read 24 h later. Read-out: 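Light from a Notch-responsive E(spl)m3 luciferase reporter under active Notch, with control-promoter and no-Notch reporter wells to normalise; raw counts from paired wells a and b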. Reading the numbers: induced reporter light, run 1, well a and induced reporter light, run 1, well b: higher = more light from the Notch target reporter with active Notch; control promoter light, run 1, well a and control promoter light, run 1, well b: higher = more light from the viral control promoter (cell number, transfection, viability); uninduced reporter light, run 1, well a: higher = more light from the Notch target reporter without active Notch. Call rule: 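Hit if the duplicate-averaged log2 ratio of induced to control-promoter light gives a plate-wise z beyond ±2, or induced to uninduced beyond ±1.8; weak-control or discordant-duplicate wells dropped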. Calls: active = modifier hit (raised or lowered Notch signal); inactive = not a hit.
The screen tested about 22,000 reagents; this is an unselected part of those that have a named target and a result. In the full data, 403 (1.9%) were called active. 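Unnormalised raw counts per well; ratio z-scores behind the hit calls and whether each hit raises or lowers signal are not deposited.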 Names joined by + are all predicted targets of the reagent. Not given: the amount of reagent.

no.	Gene	amplicon	induced reporter light, run 1, well a	induced reporter light, run 1, well b	control promoter light, run 1, well a	control promoter light, run 1, well b	uninduced reporter light, run 1, well a	call
1	eIF3j (eukaryotic translation initiation factor 3 subunit j)	DRSC06107	1.43e5	1.41e5	1.70e5	1.57e5	13588	inactive
2	CG34229	DRSC06316	1.27e5	1.23e5	1.37e5	1.27e5	11350	inactive
3	eEF1gamma (eukaryotic translation elongation factor 1 gamma)	DRSC16659	7565	5745	12940	13040	585	inactive
4	CG42307 + mus312	DRSC11008	1.77e5	1.96e5	1.47e5	1.09e5	6300	active
5	BBS8 (Bardet-Biedl syndrome 8)	DRSC00360	1.09e5	1.02e5	96395	46570	8600	inactive
6	Naa30B (N(alpha)-acetyltransferase 30 B)	DRSC08245	1.22e5	1.53e5	2.45e5	2.84e5	10805	inactive
7	Mybbp1A (MYB binding protein 1a)	DRSC18788	1.29e5	1.53e5	1.64e5	2.07e5	10225	inactive
8	ric8a	DRSC18093	2.06e5	1.83e5	2.54e5	2.77e5	13730	inactive
9	Tl (Toll)	DRSC16885	1.90e5	2.03e5	2.58e5	2.56e5	14425	inactive
10	r-cup (ryder cup)	DRSC20475	95830	96545	1.16e5	1.21e5	10735	inactive
11	CG10307	DRSC04057	2.30e5	2.27e5	1.78e5	1.89e5	16295	inactive
12	cnc (cap-n-collar)	DRSC14676	1.72e5	1.77e5	2.06e5	2.05e5	13455	inactive
13	cnc (cap-n-collar)	DRSC15289	45920	41225	2.90e5	3.49e5	4725	active
14	cnc (cap-n-collar)	DRSC15600	2.10e5	1.40e5	2.79e5	2.68e5	16092	inactive
15	cnc (cap-n-collar)	DRSC15601	1.62e5	1.67e5	2.25e5	2.07e5	12345	inactive
16	CG12112	DRSC17809	2.50e5	2.26e5	2.54e5	2.54e5	15160	inactive
17	Gr66a (Gustatory receptor 66a)	DRSC10783	2.03e5	1.82e5	2.03e5	1.75e5	5560	inactive
18	CG5623	DRSC15848	2.28e5	2.81e5	2.10e5	2.31e5	17260	inactive
19	janA (janus A)	DRSC16972	1.19e5	1.38e5	1.74e5	1.71e5	9405	inactive
20	Hsepi (Heparan sulfate C5-epimerase)	DRSC04986	2.07e5	1.73e5	1.69e5	1.78e5	13650	inactive
21	CtsL3 (Cathepsin L3)	DRSC12171	1.68e5	1.25e5	94055	1.03e5	10415	inactive
22	CG43316	DRSC06296	85125	89365	99400	94650	9885	inactive
23	CG43316	DRSC06297	1.04e5	1.03e5	1.24e5	1.10e5	9020	inactive
24	CG14645	DRSC12231	1.18e5	1.20e5	1.14e5	96485	8075	inactive
25	Grip71	DRSC02042	63740	46265	90240	90045	5000	inactive
26	CG15824	DRSC00473	1.20e5	96500	96265	56475	8760	inactive
27	CG14147	DRSC10149	1.79e5	1.32e5	1.53e5	1.68e5	7400	inactive
28	mim (missing-in-metastasis)	DRSC05013	12300	11245	13630	14385	3735	inactive
29	CG2993	DRSC14284	69190	52605	47400	36050	3980	inactive
30	CG2993	DRSC15457	83855	1.00e5	52320	50805	6415	inactive
31	CG31157	DRSC21832						inactive
32	Cmtr1 (Cap methyltransferase 1)	DRSC18400	1.33e5	1.32e5	2.90e5	2.20e5	11485	inactive
33	Dis3	DRSC16034	44835	45190	59455	62010	3165	inactive
34	sm (smooth)	DRSC05795	1.13e5	1.27e5	1.24e5	1.50e5	9980	inactive
35	sm (smooth)	DRSC07686	76245	1.04e5	2.02e5	1.82e5	7900	inactive
36	RPA1 (Replication protein A1)	DRSC16830	83065	68115	47785	33185	9300	inactive
37	Cpr62Ba (Cuticular protein 62Ba)	DRSC08403	1.12e5	1.25e5	1.83e5	1.63e5	9520	inactive
38	frma (fra mauro)	DRSC18297	1.86e5	1.42e5	2.32e5	1.88e5	10805	inactive
39	CG34280	DRSC13229	56730	60450	80685	73895	9195	inactive
40	Eig71Eb (Ecdysone-induced gene 71Eb)	DRSC11149	2.05e5	1.88e5	2.32e5	1.93e5	7730	inactive
41	CG42633	DRSC16061	89610	74300	72310	56585	6455	inactive
42	ckd (cracked)	DRSC08418	95685	1.19e5	1.68e5	1.76e5	7032	inactive
43	Gpb5 (Glycoprotein hormone beta 5)	DRSC21241	76695	92750	1.22e5	1.05e5	6490	inactive
44	Task7 (TWIK-related acid-sensitive K[+] channel 7)	DRSC16477	46280	47935	49735	49965	3170	inactive
45	CG31275	DRSC16919	2.79e5	2.90e5	2.01e5	2.31e5	18355	active
46	dgt6 (dim gamma-tubulin 6)	DRSC14424	1.37e5	1.75e5	2.09e5	2.02e5	11680	inactive
47	CG9899	DRSC04597	1.95e5	1.75e5	1.53e5	1.28e5	15235	inactive
48	CG17026	DRSC10237	1.60e5	1.65e5	1.60e5	1.26e5	8082	inactive
49	sw + Sdic4 + Sdic3 + 2 more	DRSC20696	1.07e5	98765	1.19e5	1.39e5	11030	inactive
50	CG3223	DRSC15468	96040	96525	81525	67595	7925	inactive
51	spn-E (spindle E)	DRSC17064	2.02e5	2.33e5	1.96e5	2.19e5	18032	inactive
52	Ktch (Ketchup)	DRSC15094	1.08e5	1.21e5	1.79e5	1.79e5	9700	inactive
53	CG14183	DRSC10182	1.18e5	1.12e5	69500	81975	9330	inactive
54	slou (slouch)	DRSC17058	1.81e5	1.37e5	1.80e5	1.77e5	13060	inactive
55	CG4577	DRSC00658	1.32e5	1.21e5	1.16e5	59890	10095	inactive
56	CG34166	DRSC02482	1.86e5	1.62e5	2.44e5	2.36e5	14780	active
57	CG14615	DRSC20627	80365	1.06e5	97630	1.11e5	9310	inactive
58	CG16974	DRSC02551	2.32e5	2.29e5	2.17e5	2.25e5	17535	inactive
59	Pdfr (Pigment-dispersing factor receptor)	DRSC18614	1.11e5	1.14e5	1.73e5	1.70e5	9495	inactive
60	TpnC41C (Troponin C at 41C)	DRSC04916	1.84e5	1.47e5	1.39e5	1.49e5	9800	inactive
61	Zasp52 (Z band alternatively spliced PDZ-motif protein 52)	DRSC06269	96010	95640	85440	1.09e5	16700	inactive
62	Zasp52 (Z band alternatively spliced PDZ-motif protein 52)	DRSC07121	73535	1.37e5	2.33e5	1.94e5	13500	inactive
63	levy	DRSC04289	2.41e5	2.68e5	2.49e5	2.42e5	18620	inactive
64	CG3323	DRSC18303	1.12e5	1.31e5	1.69e5	2.59e5	9460	inactive

Reformatted: 4 of the entries above
| Gene | amplicon | induced reporter light, run 1, well a | induced reporter light, run 1, well b | control promoter light, run 1, well a | control promoter light, run 1, well b | uninduced reporter light, run 1, well a | call |
| --- | --- | --- | --- | --- | --- | --- | --- |
| CtsL3 (Cathepsin L3) | DRSC12171 | 1.68e5 | 1.25e5 | 94055 | 1.03e5 | 10415 | inactive |
| CG43316 | DRSC06296 | 85125 | 89365 | 99400 | 94650 | 9885 | inactive |
| CG43316 | DRSC06297 | 1.04e5 | 1.03e5 | 1.24e5 | 1.10e5 | 9020 | inactive |
| CG14645 | DRSC12231 | 1.18e5 | 1.20e5 | 1.14e5 | 96485 | 8075 | inactive |
